{"source": "patent US11779563B2", "about": "“Oral cannabinoid pharmaceutical compositions and methods of treating sleep disorders” (Curio IP, LLC, priority 2021, dated 2023)", "origin": "cited, not measured here", "details": "smoking route (Huestis 2007)", "data": [{"smiles": "CCCCCc1cc(O)c2c(c1)OC(C)(C)[C@@H]1CCC(C)=C[C@@H]21", "note": "[THC, (−)-(6aR,10aR)-6,6,9-trimethyl-3-pentyl-6a,7,8,10a-tetrahydro-6H-benzo[c]chromen-1-ol]", "values": [{"measurement": "Bioavailability", "result": "2-56%"}]}]}
